For the test, the target named is TGM domain 2 (Heligmosomoides polygyrus). Briefly: NMR titration.

Results are given in words; binding and its absence hold for the method and conditions named. Binding can be weak; no strength is given.

B1: TβRI ectodomain (receptor, UniProt P36897 34-126)
chain: LQCFCHLCTKDNFTCVTDGLCFVSVTETTDKVIHNSMCIAEIDLIPRDRPFVCAPSSKTGSVTTTYCCNQDHCNKIELPTTVKSSPGLGPVEL
Turning to B1, the binding entry was “binds”.

Source of the values: paper doi:10.1101/2020.12.08.416701.
